The list shows a part of the results.

The values below come from PMC7819943, “Rice protein-binding microarrays: a tool to detect cis-acting elements near promoter regions in rice”.

In this test the target is T1, OsSMF1 (Oryza sativa, UniProt Q6ZLB0 1-436).
T1 sequence: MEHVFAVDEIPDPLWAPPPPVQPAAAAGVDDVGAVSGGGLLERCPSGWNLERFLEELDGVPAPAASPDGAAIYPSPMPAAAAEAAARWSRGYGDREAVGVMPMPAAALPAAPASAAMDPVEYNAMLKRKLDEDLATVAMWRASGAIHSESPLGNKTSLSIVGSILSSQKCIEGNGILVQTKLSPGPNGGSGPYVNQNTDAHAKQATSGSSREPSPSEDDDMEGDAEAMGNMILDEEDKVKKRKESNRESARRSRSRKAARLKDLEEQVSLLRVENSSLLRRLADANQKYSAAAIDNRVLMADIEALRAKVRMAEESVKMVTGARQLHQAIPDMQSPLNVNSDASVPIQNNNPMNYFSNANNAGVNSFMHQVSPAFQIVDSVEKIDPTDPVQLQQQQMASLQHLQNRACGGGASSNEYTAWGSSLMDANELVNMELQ
The test is described as follows: protein-binding microarray (RPBM); PBS, 2% BSA, 51.3 ng/ul salmon testes DNA, 50 uM zinc acetate, 200 nM TF, 25 C, 1 h; high values mean tight binding. The settings on record: protein: recombinant; tags: N-terminal polyhistidine and DsRed monomer fusion (pET32a); chain copies: 2; label: CyDye5-dUTP incorporated in the synthesized complementary strand; 3' TTTTT single-stranded linker to array surface; dsDNA, one strand shown. In short, it runs like this:
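Binding signal here means per-feature fluorescence intensity in arbitrary units. The values were read on an Axon 4000B scanner after a custom Agilent array, double-stranded by primer extension with Cy5-dUTP, was incubated with 200 nM protein at 25 °C for 1 h in PBS with 2% BSA, salmon testes DNA and 50 µM zinc acetate, then washed. The proteins were transcription factors with an N-terminal polyhistidine tag and DsRed, expressed in E. coli BL21-CodonPlus and purified on Ni–NTA.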
For “TTGGGACGGAAGAAGTAGGTATTTAGGAAGCAGTACTGGGCGGAGTCACCTAGTGCAG”, the binding signal is 28800 fluorescence intensity (a.u.).

In the case of “GCGAGCTACTACCACGCTAGGCTGCCATAGAGGGTAGTCGCGGAGTCACCTAGTGCAG”, the binding signal was 7190 fluorescence intensity (a.u.).

Take “GACCCACATGGGGCCCACGCTGACTCACCCGCCACGTTAGCGGAGTCACCTAGTGCAG”: the binding signal is 19000 fluorescence intensity (a.u.).

“TGCTCCAATCAATTGAGCAATAATACAGTATAGAACATTGCGGAGTCACCTAGTGCAG”: the binding signal was 3610 fluorescence intensity (a.u.).

For the sequence “TACCTAGTTCATGACATCATGAGACGAAATCGCTATCGGCCGGAGTCACCTAGTGCAG”, the binding signal was 5250 fluorescence intensity (a.u.).

As to “GACGAGCATTCCTGCCGTTCCCGGTACACGTCGTCCCTCTCGGAGTCACCTAGTGCAG”, the binding signal is 3620 fluorescence intensity (a.u.).

“GAGCGAACGGCCGTCTGCCACGTCCTATTCGCCGCCCTTTCGGAGTCACCTAGTGCAG”: the binding signal is 11900 fluorescence intensity (a.u.).

For the sequence “TTCCATCCGTTTCTTCGCATGTGACAGCTCATCCACACCGCGGAGTCACCTAGTGCAG”, the binding signal is 6730 fluorescence intensity (a.u.).

Turning to “GGATATCCCGGTTTGCGTCCTGCCTGACTGAATATGTGTGCGGAGTCACCTAGTGCAG”, the binding signal is 5190 fluorescence intensity (a.u.).

For “TCTTTTGGTGGTTTCAGAAGCGGTTTTATCCTACGTGACACGGAGTCACCTAGTGCAG”, the binding signal was 4530 fluorescence intensity (a.u.).

Turning to “TTTAGAGAAGGGCACTACATCCAACCGGATATATATAACCCGGAGTCACCTAGTGCAG”, the binding signal is 3310 fluorescence intensity (a.u.).

For “TGGAAAATGGGGAGGTGGGATTATAATTGGAAAATAAATGCGGAGTCACCTAGTGCAG”, the binding signal is 3650 fluorescence intensity (a.u.).

Turning to “TTTCGTCATGTCTTCATCTTCGGTTGCTAGGTCACGCCGTCGGAGTCACCTAGTGCAG”, the binding signal was 3540 fluorescence intensity (a.u.).

For “GTGATCAAGCAAGCAAACAGCACAGCGTGGACTGATTACTCGGAGTCACCTAGTGCAG”, the binding signal is 3990 fluorescence intensity (a.u.).

Take “CAACACCCCTCGACACGTCGTTCATGCTCATTCGCGTACCCGGAGTCACCTAGTGCAG”: the binding signal is 5690 fluorescence intensity (a.u.).

For “GCACGATGATTTTAGTGGCTTTGTTGGCGCGAGTTGGGTGCGGAGTCACCTAGTGCAG”, the binding signal was 3630 fluorescence intensity (a.u.).

As to “CTCTCGAGCATCAGCACGTGGCGCGCACGTGGCCAGCCAACGGAGTCACCTAGTGCAG”, the binding signal is 5170 fluorescence intensity (a.u.).

For “CTAGCAGCTGCTTGCTGTTCGTGGTGCGTACGTGTCATGACGGAGTCACCTAGTGCAG”, the binding signal is 9420 fluorescence intensity (a.u.).

With “GTTCCTATTACCACTTCCCAACGAACTAACCGAAGCCCCGCGGAGTCACCTAGTGCAG”, the binding signal was 10100 fluorescence intensity (a.u.).

With “ATCGCCGTCCGCGCCGCGCCAGGTCGCCGCGCTGCCCCGTCGGAGTCACCTAGTGCAG”, the binding signal is 3420 fluorescence intensity (a.u.).

For the sequence “TCTCCTCCCTGCCTCTTGACTGTTGTCACTTGACTCTTCGCGGAGTCACCTAGTGCAG”, the binding signal is 3420 fluorescence intensity (a.u.).

“TCCGCTAAGTCAATCCTACCGCCTCGCCTCATCTCCGTCACGGAGTCACCTAGTGCAG”: the binding signal was 3320 fluorescence intensity (a.u.).

For the sequence “CTCCATTTTCTCCGGTTTTCGCCGCAGAGTAGGAGCTGAACGGAGTCACCTAGTGCAG”, the binding signal was 21400 fluorescence intensity (a.u.).

In the case of “GGGGCGGGAGCGGGAGGGCGGCGTCGGCGAGTAGGAGGTGCGGAGTCACCTAGTGCAG”, the binding signal is 4700 fluorescence intensity (a.u.).

As to “TTTCTCCTTGCACAGCTGGTGCCACTCCTGCAGCACGGCGCGGAGTCACCTAGTGCAG”, the binding signal was 3390 fluorescence intensity (a.u.).

“AAATTAAATTGCGTAGCAATGTGGCATGTAGGTAGTAATGCGGAGTCACCTAGTGCAG”: the binding signal was 3600 fluorescence intensity (a.u.).

With “TGGCTGGTTGGGAGGGGACAGCACATGATGCTGTAGTTTTCGGAGTCACCTAGTGCAG”, the binding signal was 3510 fluorescence intensity (a.u.).

As for “TTTGATGCTCCATACATGTGTCCAAACATTTGATGTGACGCGGAGTCACCTAGTGCAG”, the binding signal was 3680 fluorescence intensity (a.u.).

As for “TGTGCAACTCAATCAATCCAAAACACGTCCCTTGTCATTCCGGAGTCACCTAGTGCAG”, the binding signal is 4480 fluorescence intensity (a.u.).

With “GGCTGGTAAGTCGGAGTCGTCGGCATGACGCCGCCTTGCTCGGAGTCACCTAGTGCAG”, the binding signal is 5330 fluorescence intensity (a.u.).

As to “TGGAACATGCATGTGATCGAGTGGCTTGATCTCTAGTTAACGGAGTCACCTAGTGCAG”, the binding signal was 12100 fluorescence intensity (a.u.).

With “AGTAACCTTGCTGGCGATGTCATCGGTCTACTCCTTAGCACGGAGTCACCTAGTGCAG”, the binding signal is 3380 fluorescence intensity (a.u.).

Take “TATTTGGAACTGTGCCATTATAATTTTACACATATTTGAGCGGAGTCACCTAGTGCAG”: the binding signal is 4030 fluorescence intensity (a.u.).

On to “ACATGTGCATCGAATCCGCATGGCTAGGAACGTAATTGTGCGGAGTCACCTAGTGCAG”, for which the binding signal was 34800 fluorescence intensity (a.u.).

Consider “CAAATACTACATCACACAGGTCAGCAGAAATTTCACTCTTCGGAGTCACCTAGTGCAG”, for which the binding signal is 4100 fluorescence intensity (a.u.).

“ACAACTCAAATAATGTACACATAAAACATTTCTAGCTTTTCGGAGTCACCTAGTGCAG”: the binding signal was 3320 fluorescence intensity (a.u.).

As to “GCCGTCCGATCGTCATCGAGAGAAGATCTGGGCCGTCCATCGGAGTCACCTAGTGCAG”, the binding signal is 3380 fluorescence intensity (a.u.).

In the case of “CAACACTTAATTATTTGCAATTAATCTAATTGCATATATACGGAGTCACCTAGTGCAG”, the binding signal was 3560 fluorescence intensity (a.u.).

In the case of “ACCCAATAAGTCCAGCTAACTTGCTTACATGGCCACTACACGGAGTCACCTAGTGCAG”, the binding signal is 4300 fluorescence intensity (a.u.).

On to “ATTCCGCCTGAACCCCACACCCGGATTCCGCCGTCAGCCACGGAGTCACCTAGTGCAG”, for which the binding signal is 4090 fluorescence intensity (a.u.).

In the case of “GAACAAAATAACTTGGGAGAGTATTTGGGCAACTTTCGGTCGGAGTCACCTAGTGCAG”, the binding signal is 18900 fluorescence intensity (a.u.).

For the sequence “CCCACCGATCAGACAGTGGGCCCTTCATGGGCCCACGCCACGGAGTCACCTAGTGCAG”, the binding signal was 3470 fluorescence intensity (a.u.).
